# PubChem BioAssay AID504804, Drosophila RNAi Screening Center, 2011
# Screen: 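Knock-downs shielding fly cells from apoptosis caused by DNA damage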 (primary screen)
# Cells: Drosophila Kc cells
# Reagent: long dsRNA against Drosophila genes, 0.5 µg dsRNA per well
# Duration: 96 h (48 h knock-down, then 48 h drug)
# Treatment: doxorubicin 5 µg/ml for 48 h, added 48 h after dsRNA
# Detection: 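Viability measured as cellular ATP by luminescence after 48 h knock-down then 48 h doxorubicin at 5 µg/ml; unnormalised plate counts for each replicate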
# Reading the numbers: raw ATP luminescence: higher = more viable cells, protection from doxorubicin
# Rule for the call: 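z-score of 2 or more over plate mean in both duplicates, retained only when retests and separate dsRNAs confirm the protection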
# The screen tested about 19,000 reagents; shown is a random part of those that have a named target and a result. Of all reagents, 47 (0.25%) were called active. 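Signals are raw, not normalised; exact z-scores behind calls not deposited; actives needed confirmation, so some wells reaching 2 SD are inactive.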 The numbers tell different reagents against one gene apart.
predicted target,dsRNA no.,"raw ATP luminescence, replicate 1","raw ATP luminescence, replicate 2",call
Rab3-GEF,1,3.13e5,2.90e5,inactive
Rab3-GEF,2,2.82e5,3.44e5,inactive
Rab3-GEF,3,1.31e5,1.35e5,inactive
Oseg5,1,63460,50923,inactive
Cht4,1,72390,38633,inactive
CG15888,1,75240,66830,inactive
CysRS-m,1,66183,55777,inactive
Cyp6u1,1,70750,54013,inactive
Ance-5,1,73293,72453,inactive
Fs,1,80143,81530,inactive
Syn1,1,63590,60860,inactive
Syn1,2,60800,68207,inactive
CG31441,1,53770,56260,inactive
RpL27A,1,16283,13757,inactive
CG7653,1,62440,56563,inactive
CG31782 (retired record),1,2.19e5,1.96e5,inactive
CG31782 (retired record),2,2.24e5,2.00e5,inactive
spo,1,73087,78493,inactive
Mzt1,1,1.87e5,1.44e5,inactive
CG7006,1,33237,31727,inactive
r-cup,1,2.74e5,3.03e5,inactive
Naus,1,71003,91360,inactive
CG30122,1,45690,71157,inactive
Spn42Dd,1,41490,1.46e5,inactive
Cyp313b1,1,63547,61620,inactive
superdeath,1,1.72e5,2.16e5,inactive
Drep3,1,33850,26043,inactive
Drep3,2,2.38e5,2.41e5,inactive
LManIII,1,42050,60327,inactive
ben,1,2.81e5,3.25e5,inactive
CG12783,1,83990,64890,inactive
gsb-n,1,1.02e5,1.15e5,inactive
gsb-n,2,46483,54880,inactive
DNAlig4,1,3.17e5,2.72e5,inactive
cold,1,1.17e5,66240,inactive
Ibf1,1,36743,45417,inactive
CG1888,1,44853,76573,inactive
mtgo,1,37640,34717,inactive
mtgo,2,65207,63953,inactive
mtgo,3,77437,69820,inactive
bib,1,97467,80290,inactive
mira,1,37360,42010,inactive
CG13724,1,41013,33213,inactive
flfl,1,42980,28880,inactive
sky,1,88640,69083,inactive
sky,2,93490,62483,inactive
sky,3,59237,61730,inactive
cbt,1,1.19e5,88107,inactive
Peritrophin-15b,1,42253,76527,inactive
trsn,1,42713,63387,inactive
CG15739,1,3.18e5,2.98e5,inactive
CG11550,1,44450,47940,inactive
Gapdh1,1,40380,89390,inactive
CG32409,1,1.18e5,1.26e5,inactive
Nmdar1,1,58987,56397,inactive
Nmdar1,2,64580,66780,inactive
CG12480,1,3.53e5,3.33e5,inactive

2 entries from above in another layout.
{"predicted target":"Gapdh1","dsRNA no.":1,"raw ATP luminescence, replicate 1":40380,"raw ATP luminescence, replicate 2":89390,"call":"inactive"}
{"predicted target":"CG32409","dsRNA no.":1,"raw ATP luminescence, replicate 1":1.18e5,"raw ATP luminescence, replicate 2":1.26e5,"call":"inactive"}
